Our source for the binding values is paper PMC1514790, “Tomosyn Inhibits Synaptic Vesicle Priming in Caenorhabditis elegans” (PLoS Biology, 2006).

These are yes or no findings as the source states them, for the method shown. Binding calls can cover weak binding; strength is not graded here. Tags and fused reporters may be left off the sequences shown.

For the test, the target named is Rat His6-tagged syntaxin (rat). Nature of the test: SDS-resistant complex assembly seen on PAGE; purified His6-tagged syntaxin, SNAP-25 and synaptobrevin of C. elegans or rat mixed in various combinations, overnight at 4 °C, SDS sample buffer, unheated or heated to 95 °C, 4%-12% PAGE, Coomassie Blue; both purified.

B1: C. elegans synaptobrevin SNB-1 cytoplasmic domain (aa 1-88), His6T7-tagged (domain or fragment, UniProt O02495 1-88, looked up)
chain: MDAQGDAGAQGGSQGGPRPSNKRLQQTQAQVDEVVGIMKVNVEKVLERDQKLSQLDDRADALQEGASQFEKSAATLKRKYWWKNIKMM
notes: C. elegans synaptobrevin (SNB-1), cytoplasmic domain aa 1-88, lacking the TM domain, cloned into pRSETC; also called His6T7-tagged SNB-1; His6-SNB-1; source: recombinant, purified (Ni-NTA agarose)
Consider B1, for which the binding entry is given as “binds”.

B2: C. elegans SNAP-25-His6 (RIC-4) (protein, UniProt O62414 1-207)
chain: MSGDDDIPEGLEAINLKMNATTDDSLESTRRMLALCEESKEAGIKTLVMLDDQGEQLERCEGALDTINQDMKEAEDHLKGMEKCCGLCVLPWNKTDDFEKTEFAKAWKKDDDGGVISDQPRITVGDSSMGPQGGYITKITNDAREDEMDENVQQVSTMVGNLRNMAIDMSTEVSNQNRQLDRIHDKAQSNEVRVESANKRAKNLITK
Regarding B2, the binding entry is listed as “binds weakly”.
